Results from patent publication US12102685B2 (priority 2020, dated 2024).
Some peptides are written in HELM: one residue between dots, names in brackets for other building blocks, links after the first $.

Assay: peptide synthesis
Details: percent yield of correct species by MS; for step yield: lipidation step

“PEPTIDE1{[lau].K.K.G.F.Y.K.K.K.Q.C.R.P.S.K.G.R.K.R.G.F.C.W}$$$$V2.0” showed a step yield of 96.7%.

In the case of “PEPTIDE1{[vlp].K.K.G.F.Y.K.K.K.Q.C.R.P.S.K.G.R.K.R.G.F.C.W}$$$$V2.0”, the conjugation yield (conjugation step) is reported as 84.9%.

“PEPTIDE1{[dec].K.K.G.F.Y.K.K.K.Q.C.R.P.S.K.G.R.K.R.G.F.C.W}$$$$V2.0” gave a step yield of 98.0%.
